Among the data in PubChem BioAssay AID493014 (National Center for Advancing Translational Sciences (NCATS), 2011) are AC50 values, retold here.

This test can be described thus: qHTS Assay to Find Inhibitors of Chronic Active B-Cell Receptor Signaling. The conditions noted are these: ABC-DLBCL IkBa-CBG/CBR reporter, luminescence ratio (green luciferase fused to IkBa over red control in TMD8 lymphoma cells), 4 h. Put shortly:
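Compounds up to 46 uM were incubated four hours with TMD8 cells whose green CBG68 luciferase is fused to IkappaBalpha; red CBR luminescence normalised the signal, and concentration-effect curves were fitted to fusion, red and ratio data.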
(qHTS replaces the single test concentration by a dilution series.)

Setting [1] is: measured here: CBR red luminescence, cell number.
The mark [2] stands for this setting: measured here: IkBa-CBG green luminescence.

The list shows a part of the results. Shown are side measurements of this screen, not its main read-out; they come without a call. The list favours compounds with an active or inconclusive main result. Words in brackets tell the shape of the fitted curve; partial curves, single points and poor fits give uncertain potencies.

Consider `CC(C)Nc1nc(Cl)nc(N(C#N)CN2C(=O)c3ccccc3C2=O)n1`, for which the AC50 (in general, the midpoint of the concentration-response curve, whichever way the signal moves) runs as follows: under setting [1], 29.1 µM [falling, single point]; under setting [2], 29.1 µM [rising, partial curve, poor fit].
Turning to `Cc1ccc2sc(N(CCCN(C)C)C(=O)c3ccc(Br)s3)nc2c1C`, under setting [1], the half-maximal activity concentration (AC50) is 8.91 µM [falling, partial curve, poor fit].
Turning to `Cc1ccc(-c2c[n+](CC(=O)c3ccc(Br)cc3)c3n2CCCCC3)cc1`, the AC50 under setting [1] is 35.5 µM [falling, single point].
Same read-out and setting: in the case of `Cc1ccc(C(=O)N/N=C\c2ccc[nH]2)cc1[N+](=O)[O-]` it was 10 µM [falling, partial curve, poor fit].
Consider `CCOc1cc(/C=N\NC(=O)Cn2nc([N+](=O)[O-])cc2C)ccc1OCc1cccc2ccccc12`, for which the half-maximal activity concentration (AC50) under setting [2] is 6.51 µM [rising, partial curve, poor fit].
Regarding `COc1ccc(-c2noc(-c3cc(C)cc(C)c3)n2)cc1OC`, the half-maximal activity concentration (AC50) under setting [1] is 3.66 µM [rising, full curve].
Take `COc1ccc(-c2nnc(SCC(=O)NC3CCCCC3)o2)cc1OC`: the AC50 under setting [1] is 2.06 µM [falling, single point].
On to `Cc1cccc(NCc2cccc3ccccc23)n1`, for which the AC50 under setting [1] is 11.2 µM [rising, partial curve, poor fit].
For the compound `CCCCSc1nc2c(cnn2-c2ccc(Cl)cc2)c(=O)[nH]1`, the AC50 under setting [1] is 29.1 µM [rising, single point].
On the same count and under the same terms, in the case of `COc1ccc(-c2cc(=O)c3c(O)cc(O[C@@H]4O[C@H](CO[C@@H]5O[C@@H](C)[C@H](O)[C@@H](O)[C@H]5O)[C@@H](O)[C@H](O)[C@H]4O)cc3o2)cc1O` it was 5.62 µM [rising, single point]; in that of `O=S(=O)(c1ccccc1)N1c2cc(Cl)ccc2Oc2nc3ccccc3nc21`, 0.82 µM [rising, full curve, poor fit]; in that of `C=CCNC(=O)N1CCc2[nH]c3ccc(F)cc3c2C1`, 15.8 µM [falling, single point].
Turning to `CC(Cc1ccccc1)NC(=O)c1cc([N+](=O)[O-])ccc1Cl` (stereo not given), the half-maximal activity concentration (AC50) under setting [1] is 1.26 µM [rising, partial curve, poor fit].
In the case of `COc1ccc(Cl)cc1NC(=O)COC(=O)c1cc(NS(=O)(=O)c2cccs2)ccc1O`, under setting [1], the AC50 was 20.6 µM [falling, partial curve].
Take `COc1ccc(N2C(=O)C3CC(C)=C(C)CC3C2=O)c(OC)c1` (stereo not given): under setting [1], the AC50 is 6.51 µM [rising, single point].
Take `COc1ccc(N2Cc3ccccc3C2=O)cc1`: under setting [1], the half-maximal activity concentration (AC50) was 14.1 µM [falling, single point].
Consider `CCOc1ccc(/C=C2\SC(=S)N(CCC(=O)Nc3cccc(C(=O)O)c3)C2=O)cc1`, for which the AC50 under setting [1] was 7.94 µM [falling, partial curve].
With `Cc1cc(C)c(S(=O)(=O)Cc2ccccc2)c(OC(C)C)n1`, the AC50 under setting [1] is 3.16 µM [rising, full curve, poor fit].
Take `CNC(=S)N/N=C/c1ccc(OCc2ccccc2)c(Br)c1`: the concentration at half-maximal activity (AC50) under setting [1] was 14.6 µM [rising, partial curve].
Turning to `O=C(CNC(=O)c1cccs1)NCC(=O)OCc1cccc(Cl)c1`, the AC50 under setting [1] is 17.8 µM [rising, partial curve, poor fit].
For `O=[N+]([O-])c1ccc(NS(=O)(=O)c2cccc3cccnc23)cc1`, the AC50 under setting [1] is 35.5 µM [rising, partial curve, poor fit].
Regarding `CS(=O)(=O)c1ncc(Cl)c(C(=O)Nc2ccc3ccccc3c2)n1`, the half-maximal activity concentration (AC50) under setting [1] is 3.16 µM [falling, full curve].
`N/C(=N\OC(=O)c1ccccc1)c1ccncc1`: the concentration at half-maximal activity (AC50) under setting [1] is 35.5 µM [falling, single point].
As to `O=[N+]([O-])c1ccc(-c2csc(N3CCCCCC3)n2)cc1`, the concentration at half-maximal activity (AC50) under setting [1] is 7.08 µM [rising, full curve].
As to `CCOc1cc(/C=C/c2ccc3cccc([N+](=O)[O-])c3n2)ccc1OCC(=O)N(C)C`, under setting [1], the half-maximal activity concentration (AC50) was 35.5 µM [falling, single point].
Turning to `COc1ccc(NC(=O)c2c(F)cccc2F)cc1S(=O)(=O)Nc1ccc(Br)cc1`, the concentration at half-maximal activity (AC50) under setting [1] is 7.31 µM [falling, partial curve].
Turning to `CCn1c(Cc2ccccc2)n[nH]c1=S`, the AC50 under setting [1] is 6.31 µM [rising, single point].
As to `Cc1nn2c(COc3ccc(NC(=O)C(C)C)cc3)nnc2c2ccccc12`, under setting [1], the AC50 was 1.41 µM [rising, partial curve, poor fit].
On to `COc1cccc(CC(=O)OC(C)C(=O)Nc2ncc(Cl)cc2Cl)c1` (stereo not given), for which the half-maximal activity concentration (AC50) under setting [1] is 2.91 µM [rising, full curve].
Regarding `O=C(Nc1ccc(C(=O)O)cc1)/C(=C\c1cccc([N+](=O)[O-])c1)NC(=O)c1ccc(Br)o1`, the AC50 under setting [1] is 11.2 µM [falling, partial curve].
On the same count and under the same terms, in the case of `C/C(=N\NC(=O)c1cc(-c2cccs2)nc2ccccc12)c1ccccn1` it was 3.16 µM [rising, single point].
As for `O=C(NCc1ccccc1Br)c1cccc2c1C(=O)c1ccc(-c3ccc(OC(F)(F)F)cc3)cc1S2(=O)=O`, the AC50 under setting [1] is 9.2 µM [rising, partial curve].
Same read-out and setting: with `O=C(Nc1ccc([N+](=O)[O-])cc1)Nn1cnnc1` the figure was 17.8 µM [rising, single point]; with `O=C(NCCCN1CCCCCC1)c1ccc2c(Cl)c3c(nc2c1)CCCC3`, 17.8 µM [falling, single point]; with `N#Cc1ccc(/C=C/C(=O)c2cccnc2)cc1`, 22.4 µM [rising, single point].
As to `FC(F)(F)c1cnc2c(-c3ccc(Cl)cc3Cl)noc2c1`, the AC50 under setting [1] is 29.1 µM [rising, single point].
Same read-out and setting: in the case of `COc1cccc(C(=O)/C(C#N)=N/Nc2cccc(-c3ccnc(C)n3)c2)c1` it was 4.47 µM [rising, full curve, poor fit]; in that of `CC(C)c1ccc(NC2CCCN(C(=O)CCN3CCCCO3)C2)cc1` (stereo not given), 17.8 µM [rising, single point]; in that of `CN(Cc1ccc(C(F)(F)F)cc1)C(=O)c1ccc2ccccc2n1`, 15.8 µM [rising, single point].
As for `COc1ccc(S(=O)(=O)Nc2ccc3c(c2)n(C)c(=O)n3C)cc1`, the half-maximal activity concentration (AC50) is 35.5 µM [rising, single point] under setting [1] and 14.1 µM [falling, partial curve, poor fit] under setting [2].
`COc1ccc(Br)c(-c2nnc(CS(=O)(=O)c3ccccc3)o2)c1`: the AC50 under setting [1] is 12.6 µM [rising, partial curve, poor fit].
For `CC/C(=N\NC(=O)c1ccc2c(c1)OCO2)C12CC3CC(CC(C3)C1)C2`, the AC50 under setting [1] was 13 µM [falling, partial curve].
Turning to `Cc1ccc2nc(SCC(=O)Nc3ccc(Br)cc3)nc(=O)n2c1`, the concentration at half-maximal activity (AC50) under setting [1] is 29.1 µM [rising, single point].
Same read-out and setting: in the case of `CCOC(=O)c1[nH]c(C)c(/C(O)=C2\C(=O)C(=O)N(CCCN(C)C)C2c2ccncc2)c1C` (stereo not given) it was 0.631 µM [falling, partial curve, poor fit]; in that of `Oc1ccc(N=Nc2ccccc2)o1`, 35.5 µM [falling, single point].
Same read-out and setting: with `Cc1c(CCC(=O)O)c(=O)oc2cc3occ(-c4ccccc4)c3cc12` the figure was 3.98 µM [rising, partial curve, poor fit]; with `Cc1cc(Nc2nnnn2-c2ccccc2)n(-c2ccc(Cl)cc2)n1`, 6.31 µM [falling, partial curve].
Still for that read-out and setting: with `O=C(NCc1ccc(F)cc1)C1CC(=O)N(Cc2ccco2)C1` (stereo not given) the figure was 35.5 µM [falling, single point].
For `CCOc1ccccc1NC(=O)COc1cccc2c(=O)n(CCOC)ccc12`, under setting [1], the AC50 is 0.158 µM [falling, full curve, poor fit].
Turning to `Cc1cc(Br)c(Cl)cc1NC(=O)CN1C(=O)C2C3CC(c4ccccc4)C(C3)C2C1=O` (stereo not given), the AC50 under setting [1] is 20.6 µM [falling, partial curve].
`O=C1CCCc2nc3nc4ccccc4n3cc21`: the concentration at half-maximal activity (AC50) under setting [1] was 35.5 µM [falling, single point].
On the same count and under the same terms, with `COCCn1c(SCCCc2ccccc2)nc2c1c(=O)[nH]c(=O)n2C` the figure was 1.41 µM [falling, full curve]; with `O=c1c2ccccc2nc(/C=C/c2cc(Br)ccc2O)n1CCCO`, 12.6 µM [falling, single point].
For the compound `O=C(NCCC1CCCCN1S(=O)(=O)c1ccc(F)cc1)C(=O)NCc1cccnc1` (stereo not given), under setting [1], the AC50 was 1.64 µM [falling, partial curve, poor fit].
On the same count and under the same terms, with `CCN(CC)S(=O)(=O)c1ccc(NC(=O)c2ccc(Cl)nc2)cc1` the figure was 4.47 µM [falling, full curve, poor fit]; with `COc1ccccc1NC(=O)CCCNC(=O)Cn1cnc2sc(C)c(C)c2c1=O`, 35.5 µM [falling, single point].
For the compound `NC(=O)c1oc2ccccc2c1NC(=O)C1CC(=O)N(c2ccccc2)C1` (stereo not given), the concentration at half-maximal activity (AC50) runs as follows: under setting [1], 5.17 µM [falling, partial curve, poor fit]; under setting [2], 2.31 µM [rising, partial curve, poor fit].
As to `O=C(Nc1ccccc1)c1cccc(N2C(=O)C3C4C=CC(C5CC45)C3C2=O)c1` (stereo not given), the AC50 under setting [1] is 22.4 µM [falling, single point].
`N#Cc1cccc(NC(=O)CCc2ccc(S(=O)(=O)N3CCOCC3)cc2)c1`: the concentration at half-maximal activity (AC50) under setting [1] was 29.1 µM [falling, single point].
Same read-out and setting: with `COc1ccc(C(=O)CSc2nnc(CNC(=O)c3ccccc3)n2C)cc1` the figure was 1 µM [rising, full curve, poor fit]; with `COc1cc(C2Nc3ccccc3C(=O)N2c2ccccc2OC)ccc1O` (stereo not given), 11.6 µM [falling, partial curve]; with `CCCC1(CCC)C(=O)NC(=NCCc2ccc(OC)c(OC)c2)NC1=O`, 29.1 µM [rising, partial curve, poor fit].
